{"source": "PubChem BioAssay AID540256", "about": "(National Center for Advancing Translational Sciences (NCATS), 2011)", "note": "In all, about 300,000 compounds went through this assay and about 3,700 (1.2%) were called active. The inconclusive results got no clear call from the source; some entries with a clear call stand among them for comparison. Calls come from the whole dose curve; tested in HEK293 cells. A potency beside an inconclusive call is a rough fit, not a confirmed value. Potency is the fitted concentration of half-maximal effect.", "data": [{"test": "qHTS for Inhibitors of binding or entry into cells for Lassa Virus; note: nearly all actives have a fitted effect of over 50% in size", "conditions": "Lassa virus pseudotype entry inhibition, cell reporter; series mostly up to 37.9 µM", "values": [{"smiles": "Cc1cccc(-c2noc(-c3ccccc3OCC(=O)Nc3ccc([N+](=O)[O-])cc3)n2)c1", "Potency": "inactive"}, {"smiles": "CC(C)CC(=O)Nc1cccc(-c2nc3ccccc3[nH]2)c1", "Potency": "inactive"}, {"smiles": "CCCCc1ccc(NC(=S)NCCc2ccc(F)cc2)cc1", "Potency": "inconclusive: 2.24 µM [inhibitor, full curve, poor fit]"}, {"smiles": "O=S(=O)(c1ccc(Cl)cc1)N1CCN(Cc2ccc(O)c3ncccc23)CC1", "Potency": "inconclusive: 6.31 µM [inhibitor, partial curve]"}, {"smiles": "Cc1ccc(C)c(NC(=O)CN(C)C(=O)Cc2ccccc2)c1", "Potency": "inconclusive: 31.6 µM [activator, single point]"}, {"smiles": "O=[N+]([O-])c1ccc(N2CCCCC2)nc1N1CCCCC1", "Potency": "inconclusive: 35.5 µM [inhibitor, single point]"}, {"smiles": "CN(C)c1ccc(C(CNC(=O)c2ccccc2)N2CCc3ccccc32)cc1", "note": "(stereo not given)", "Potency": "inactive"}, {"smiles": "CC(C)c1ccc(/C=C/C(=O)Nc2ccc(CN3CCOCC3)cc2)cc1", "Potency": "inconclusive: 1 µM [inhibitor, full curve]"}, {"smiles": "Cc1noc(C)c1C(=O)OCC(=O)Nc1ccccc1C(=O)NC(C)c1ccccc1", "note": "(stereo not given)", "Potency": "inconclusive: 25.9 µM [inhibitor, partial curve]"}, {"smiles": "CC(C)c1ccc(S(=O)(=O)N2CCN(C(=O)Cc3ccsc3)CC2)cc1", "Potency": "inactive"}, {"smiles": "N/C(=N\\OC(=O)COc1ccc(Br)cc1Cl)c1ccccn1", "Potency": "active: 2 µM"}, {"smiles": "COC(=O)c1ccc(NC(=O)CSc2nc(=O)[nH]c3c2CCCC3)cc1", "Potency": "inactive"}, {"smiles": "O=C1CC(SC2=NCCS2)C(=O)N1c1ccc(Br)cc1", "note": "(stereo not given)", "Potency": "inconclusive: 0.231 µM [inhibitor, single point]"}, {"smiles": "O=C(COC(=O)c1ccccc1Br)Nc1ccccc1F", "Potency": "inactive"}, {"smiles": "Cc1csc(NC(=O)c2cc(-c3ccccc3)nc3ccccc23)n1", "Potency": "inconclusive: 35.5 µM [inhibitor, single point]"}, {"smiles": "CN(C)S(=O)(=O)c1cccc(NC(=O)COC(=O)/C=C/c2ccc([N+](=O)[O-])cc2)c1", "Potency": "inconclusive: 1.26 µM [activator, single point]"}, {"smiles": "N#CC1(NC(=O)COc2cccnc2[N+](=O)[O-])CCCCC1", "Potency": "inactive"}, {"smiles": "O=C(Nc1ccccc1)C(c1ccccc1)c1ccccc1", "Potency": "inconclusive: 6.31 µM [inhibitor, partial curve, poor fit]"}, {"smiles": "O=C(O)CC/C(=N\\Nc1ccc(S(=O)(=O)N2CCCC2)cc1[N+](=O)[O-])c1cccs1", "Potency": "inactive"}, {"smiles": "Cc1nc2nc(-c3cccs3)[nH]c2cc1Br", "Potency": "inconclusive: 35.5 µM [inhibitor, single point]"}, {"smiles": "Cc1sc(NC(=O)c2ccco2)c(C(c2ccccc2)N2CCC(C)CC2)c1C", "note": "(stereo not given)", "Potency": "inconclusive: 8.91 µM [inhibitor, partial curve, poor fit]"}, {"smiles": "CCc1cnc2c(c1SCC(=O)c1ccccc1)c(=O)n(C)c(=O)n2C", "Potency": "inconclusive: 35.5 µM [inhibitor, single point]"}, {"smiles": "COc1ccc2c3c(ccc2c1)C(=O)/C(=C/O)CC3", "Potency": "inconclusive: 10 µM [inhibitor, single point]"}, {"smiles": "COc1cccc(-c2cn3nc4c(nc3n2)CCCC4)c1", "Potency": "inconclusive: 3.98 µM [inhibitor, full curve, poor fit]"}, {"smiles": "Cn1cnnc1SCC(C)(C)NS(=O)(=O)c1ccc(Cl)cc1", "Potency": "inactive"}, {"smiles": "COc1ccc(C2=CCCC2)c(OC)c1", "Potency": "inconclusive: 8.91 µM [activator, partial curve, poor fit]"}, {"smiles": "CC12CCC(C(=O)NCCCN3CCOCC3)(C(Br)C1=O)C2(C)C", "note": "(stereo not given)", "Potency": "inconclusive: 6.31 µM [inhibitor, single point]"}, {"smiles": "COc1ccc(N2CCN(CCCNC(=O)CN3CCN(Cc4ccccc4C)C3=O)CC2)cc1", "Potency": "inactive"}, {"smiles": "CC(C)C(C(=O)NCc1ccco1)N(C(=O)CNS(=O)(=O)c1ccc(Cl)cc1)C1CCCC1", "note": "(stereo not given)", "Potency": "inconclusive: 5.62 µM [inhibitor, partial curve, poor fit]"}, {"smiles": "CC1CCC(C(=O)NC(C(=O)OCC(=O)c2ccccc2)C(C)C)CC1", "note": "(stereo not given)", "Potency": "inactive"}, {"smiles": "C[C@H]1[C@@H](c2ccccc2)Oc2ccc(Cl)cc2S(=O)(=O)N1Cc1cccc(Cl)c1", "Potency": "inactive"}, {"smiles": "Cc1ccc(N2CC(C(=O)Nc3ccc4c(c3)OCCO4)CC2=O)cc1C", "note": "(stereo not given)", "Potency": "inactive"}, {"smiles": "O=C(NCCOc1nc(N2CCCCC2)nc(N2CCOCC2)n1)Nc1ccccc1", "Potency": "inactive"}, {"smiles": "O=C1/C(=C/N(C(=O)c2ccco2)c2ccc(Cl)cc2)Sc2ccccc21", "Potency": "inconclusive: 35.5 µM [inhibitor, single point]"}, {"smiles": "N#C/C(=C/c1ccc(-c2ccccc2[N+](=O)[O-])o1)C(=O)NCCN1CCCCC1", "Potency": "inconclusive: 0.794 µM [activator, full curve, poor fit]"}, {"smiles": "CSc1nc2sc3c(c2c(=O)n1Cc1ccccc1)CCC(C(C)(C)C)C3", "note": "(stereo not given)", "Potency": "inactive"}, {"smiles": "Cc1nn(C)c(C)c1/C=C(\\C#N)C(N)=O", "Potency": "inconclusive: 2.82 µM [activator, partial curve, poor fit]"}, {"smiles": "COc1cc(/C=C2\\SC(=S)N(CCC(=O)Nc3ccc(O)cc3)C2=O)cc(OC)c1OC", "Potency": "inconclusive: 7.08 µM [inhibitor, partial curve]"}, {"smiles": "COc1cc(N/N=C/c2ccccc2O)ncn1", "Potency": "inconclusive: 32.6 µM [inhibitor, single point]"}, {"smiles": "CC(=O)Nc1ccc(SCC(=O)c2cc(C)n(C)c2C)cc1", "Potency": "inconclusive: 35.5 µM [activator, single point]"}, {"smiles": "CN1CCC(OC(c2ccccc2)c2ccc(Cl)cc2)C1", "note": "(stereo not given)", "Potency": "inconclusive: 22.4 µM [inhibitor, single point]"}, {"smiles": "O=C(COC(=O)c1cc(-c2ccccc2)nc2ccccc12)c1ccc(Br)cc1", "Potency": "inactive"}, {"smiles": "CCc1ccccc1NC(=O)CC1CS(=O)(=O)CC1CC(=O)Nc1ccccc1CC", "note": "(stereo not given)", "Potency": "inconclusive: 0.158 µM [activator, full curve, poor fit]"}, {"smiles": "NC(=O)c1nc(-c2ccc(F)c(F)c2)nc2c1[nH]c(=O)n2-c1cccc(Cl)c1", "Potency": "inconclusive: 0.562 µM [inhibitor, full curve, poor fit]"}, {"smiles": "CCN1CCN(CCCNC(=O)c2cnn(-c3ccc(C)cc3C)c2C2CCN(C(=O)OC(C)(C)C)CC2)CC1", "Potency": "inconclusive: 35.5 µM [inhibitor, single point]"}]}]}
